Measured values as given in PubChem BioAssay (NCATS).
Inconclusive results, whose numbers are uncertain, are shown with a selection of clear calls. Potencies beside an inconclusive call are fits to weak or partial responses and may not hold up. Active and inactive are the calls of the source. The call rests on the fitted dose curve; in most records, active means well fitted activation curve with a large enough effect; inconclusive means small, poorly fitted or top-dose-only effect, or another doubt; inactive means no such curve, though single readings can be large or run the other way.

biological target: Rap guanine nucleotide exchange factor 3 (Homo sapiens) (UniProt O95398); experiment: Counterscreen qHTS for agonist of cAMP-regulated guanine nucleotide exchange factor 3 (EPAC1) (AID 1645889); conditions: EPAC1 Rap1B-BODIPY-GDP exchange, fluorescence; activation: at 154 µM (top of the series) unless noted; further: nearly all actives have a fitted effect of over 40% in size; on activation: % of control where 0% means no effect
Summary of the method: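 Rap1B-BODIPY-GDP 250 nM + GDP 50 uM; cpds 7-pt, final 9.74 nM–152 uM (activator mode) or from 7.32 nM upwards (inhibitor mode); RT; FI 480/540 nm at 5 and 30 min, then ± cAMP, reread.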
Potency means the concentration at half of the fitted maximal effect.

Structure (SMILES)	activation	Potency
CCOC(=O)c1c(NC(=O)CSc2nnc(C)c(=O)[nH]2)sc(C)c1-c1ccc(C)cc1	inactive: 7.2%	–
CCN(CC)c1ccc2cc(-c3nc(-c4ccccc4)no3)c(=O)oc2c1	–	active: 56.2 µM
COc1ccc(C(=O)c2oc3ccc(OC)cc3c2N)cc1	inactive: 10.5%	–
C#Cc1ccc([C@H]2C=C(C(=O)NCc3ccccc3)O[C@@H](OCC)[C@@H]2CCCO)cc1	inconclusive: 22.5% [activator]	–
COc1ccc(C(=O)NCCn2cc(SCc3cccc(F)c3)c3ccccc32)cc1OC	–	inconclusive: 8.91 µM [activator, partial curve, poor fit]
O=C1CSC(=Nc2ccccc2)N1Cc1ccccc1	–	inconclusive: 35.5 µM [activator, partial curve]
Cc1cc2c(N)cccc2nn1	inactive: 26.1%	–
CC(=O)Nc1ccc(S(=O)(=O)N2CCN(c3cc(C)ccc3C)CC2)cc1	–	inconclusive: 5.62 µM [activator, partial curve]
Cc1nn(-c2ccccc2)c2nc(N)c(C#N)c(-c3ccc(O)c(O)c3)c12	–	inconclusive: 0.01 µM [activator, full curve, poor fit]
Cc1cccc(NC(=O)CNC(=O)CCc2nc3sc4c(c3c(=O)[nH]2)CCCC4)c1C	inconclusive: 55.6% [activator]	–
Clc1ccc(CSc2nnc(-c3ccccn3)n2Cc2ccco2)cc1Cl	–	inconclusive: 8.91 µM [activator, partial curve]
CCn1c(=O)c(C(=O)NNS(=O)(=O)c2ccc(C)cc2)c(O)c2ccccc21	–	inconclusive: 12.6 µM [activator, partial curve, poor fit]
CC(=O)Nc1ccc(NC(=S)NC(=O)/C=C/c2ccco2)cc1	inactive: 30.1%	–
Cc1ccn2c(-c3csc(NCc4ccccc4)n3)c(C)nc2c1	inconclusive: 43.7% [activator]	–
Cc1ccc(-c2nc3ccc(C)cn3c2Cc2cccc(F)c2)cc1	inconclusive: 45.9% [activator]	–
Cc1ccc(C)c(Oc2nc3c(c(=O)n(C)c(=O)n3C)n2Cc2ccccc2)c1	–	inconclusive: 10 µM [activator, full curve]
COc1ccc(C(=O)Oc2ccc(/C=N/Nc3ccc(Cl)c(C(=O)O)c3)cc2OC)cc1	inconclusive: 29.3% [activator]	–
COc1ccc(-n2cc(-c3ccccc3)c3c(N4CCOCC4)ncnc32)cc1	–	inconclusive: 0.178 µM [activator, full curve, poor fit]
Cc1ccccc1OCC(=O)Nc1ccccc1N1CCC(C)CC1	inactive: -7.31%	–
Fc1cccc(Cc2c(-c3ccc(Cl)cc3)nc3ccc(Cl)cn23)c1	inactive: 23% [at 30.8 µM]	–
COC1=C/C(=C/c2c(N)n3nc(-c4ccc(C)cc4)sc3nc2=O)C=CC1=O	inactive: -3.64%	–
Cc1cccc(Oc2ccccc2NC(=O)C2=COCCO2)c1	inconclusive: 57.6% [activator]	–
COC(=O)CN(c1nc(C)c(Br)c(OC)n1)S(=O)(=O)c1ccccc1	–	inconclusive: 1.78 µM [activator, full curve, poor fit]
CN1CCc2nc3sc(C(=O)C45CC6CC(CC(C6)C4)C5)c(N)c3cc2C1	–	inconclusive: 14.1 µM [activator, partial curve, poor fit]
CCOc1ccc(NC(=O)CN(C)C(=O)c2ccccc2SCc2c(C)noc2C)cc1OCC	inactive: 18% [at 30.8 µM]	–
O=C1Nc2ccccc2N=C(c2ccccc2)c2ccccc21	inactive: 39.2% [at 30.8 µM]	–
COc1ccc(Cl)cc1N(C)C(=O)Cc1noc2ccc(C)cc12	–	inconclusive: 63.1 µM [activator, partial curve, poor fit]
CCCCn1nnnc1C(c1cc2ccccc2o1)N1CCN(c2cc(C)nc3ccccc23)CC1 (stereo not given)	–	inconclusive: 22.4 µM [activator, partial curve, poor fit]
COc1ccc(-c2ccc(CCC(=O)O)n2-c2ccc(Cl)cc2C)cc1	inactive: 15%	–
O=C(Cc1c(Cl)cccc1Cl)Nc1ccc(S(=O)(=O)Nc2ncccn2)cc1	–	inconclusive: 0.178 µM [activator, full curve, poor fit]

Random excerpt: two records from the list.
Structure (SMILES)	activation	Potency
Cc1ccccc1OCC(=O)Nc1ccccc1N1CCC(C)CC1	inactive: -7.31%	–
CCCCn1nnnc1C(c1cc2ccccc2o1)N1CCN(c2cc(C)nc3ccccc23)CC1 (stereo not given)	–	inconclusive: 22.4 µM [activator, partial curve, poor fit]
